Results are given in words; binding and its absence hold for the method and conditions named. For part of these data: Binding seen in cells or lysates may run through a third protein. Some results given as binding are weak or reduced against the parent protein; the word gives no strength.
T1: Tsw coiled-coil (CC) domain (1-169 aa) (Capsicum chinense)
T1 sequence: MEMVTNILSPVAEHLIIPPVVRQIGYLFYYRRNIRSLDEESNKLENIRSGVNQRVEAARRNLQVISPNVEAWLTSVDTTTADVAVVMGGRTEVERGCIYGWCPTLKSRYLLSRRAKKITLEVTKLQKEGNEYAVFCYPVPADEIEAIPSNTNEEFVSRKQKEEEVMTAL

B1: Tsw coiled-coil (CC) domain (1-169 aa) (domain or fragment, UniProt A0A1C9TCM9 1-169)
chain: T1 sequence
B2: Tsw nucleotide-binding site (NBS) domain (170-491 aa) (domain or fragment, UniProt A0A1C9TCM9 170-491)
chain: KDEEITIVGICGMGGVGKTSLAEKVRARAKQERLFNDVVMVTVSQQQDLKRIQGEIAGEVGLTSLQGDNLLSRGDQLRARLMQEGSRVLVILDDVWEALDDLEKLGIPTGSNHNYQCKVALTTRRQDVCDAMKAQKTVDVVILSDEEAWVLFRQKAGYSADDPSLSEVAKEVAKECKGLPLAIVIVAGALKTKTKPSWDDALVELRKASPKNIPRVLTKVYQPLKTSYDHLESDEARYVFLLCSLFEEDSDIWTEELLKYGVGLGIFSELENLECARNRVCNLLETLKNCFLLSQGKDKNYVKMHDVVRDVAIYIASEGEHK

Tests used:
[1] = molecular target: T1, Tsw coiled-coil (CC) domain (1-169 aa) (Capsicum chinense); assay: native gel or EMSA; BN-PAGE (NativePAGE Novex Bis-Tris); CC-GFP transiently expressed in N. benthamiana leaves, protein extract 36 h post inoculation
[2] = molecular target: T1, Tsw coiled-coil (CC) domain (1-169 aa) (Capsicum chinense); assay: co-IP; CC-GFP and CC-Myc co-expressed in N. benthamiana leaves by agroinfiltration, 3 d; extraction buffer 25 mM Tris-HCl pH 7.5, 150 mM NaCl, 1 mM EDTA, 0.5% NP-40, 10% glycerol, 10 mM DTT; GFP-trap beads 3 h at 4 °C; blot with anti-Myc and anti-GFP
[3] = molecular target: T1, Tsw coiled-coil (CC) domain (1-169 aa) (Capsicum chinense); assay: co-IP; co-IP of the NBS and CC domains of Tsw (Supplementary Fig. S3B); constructs and bait of this experiment not shown

Binder	binding [1]	binding [2]	binding [3]
B1	binds	binds	
B2			binds

From article PMC10010612
